Molecular target: Sp1-516C (Sp1 C-terminal 516 amino acids) (Homo sapiens) (UniProt P08047)
Assay: activity assay
Details: in vitro transcription in Drosophila Kc nuclear extract, 10 mM MgCl2, 70 mM KCl, 22 C; little activation when triple helix (oligomer 1) preformed; purified recombinant protein

Amino acid sequences for entries named in this document (tags omitted). Residues count along the entry.
UniProt P08047, 270-785: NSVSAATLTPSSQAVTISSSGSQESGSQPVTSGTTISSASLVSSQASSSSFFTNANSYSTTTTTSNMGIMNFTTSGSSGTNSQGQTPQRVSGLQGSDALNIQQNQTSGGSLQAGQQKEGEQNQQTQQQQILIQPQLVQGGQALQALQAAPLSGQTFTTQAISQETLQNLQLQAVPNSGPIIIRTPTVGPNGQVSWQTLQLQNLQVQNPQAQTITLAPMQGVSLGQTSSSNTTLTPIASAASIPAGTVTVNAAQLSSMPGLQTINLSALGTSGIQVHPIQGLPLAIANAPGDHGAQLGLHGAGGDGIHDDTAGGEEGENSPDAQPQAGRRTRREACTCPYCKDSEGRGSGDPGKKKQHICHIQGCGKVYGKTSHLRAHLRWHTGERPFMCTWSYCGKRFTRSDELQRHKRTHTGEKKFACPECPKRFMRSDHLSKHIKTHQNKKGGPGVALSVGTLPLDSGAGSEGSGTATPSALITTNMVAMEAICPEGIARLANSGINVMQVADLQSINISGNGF

Sequence: GATCTGAGAAAGGAGAGAAAAAGGGGCGGGGCATGCATTG / ACTCTTTCCTCTCTTTTTCCCCGCCCCGTACGTAACCTAG
- activity on this sequence (fold activation): 1.5
